Laboratory results taken from paper PMC7819943, “Rice protein-binding microarrays: a tool to detect cis-acting elements near promoter regions in rice”.
Some of the results follow.

Protein sequences, listed by entry. Tags and fused reporters are not part of them.
UniProt Q0JBA9, entry or part of it: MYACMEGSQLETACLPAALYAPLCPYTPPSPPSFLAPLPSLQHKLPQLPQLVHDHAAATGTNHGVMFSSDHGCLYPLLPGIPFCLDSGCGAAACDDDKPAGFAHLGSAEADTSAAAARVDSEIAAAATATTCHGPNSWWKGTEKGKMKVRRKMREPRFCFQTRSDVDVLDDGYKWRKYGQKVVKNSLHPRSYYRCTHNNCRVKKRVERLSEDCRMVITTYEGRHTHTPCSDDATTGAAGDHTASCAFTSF

biological target: OsWRKY34 (Oryza sativa, UniProt Q0JBA9 1-250); assay: protein-binding microarray (RPBM); PBS, 2% BSA, 51.3 ng/ul salmon testes DNA, 50 uM zinc acetate, 200 nM TF, 25 C, 1 h; high values mean tight binding; details: protein: recombinant; tags: N-terminal polyhistidine and DsRed monomer fusion (pET32a); label: CyDye5-dUTP incorporated in the synthesized complementary strand; 3' TTTTT single-stranded linker to array surface; dsDNA, one strand shown
Procedure, shortened: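 The binding signal is fluorescence intensity per array feature (arbitrary units). Readings came from an Axon 4000B scanner after a washed, 2% BSA-blocked, double-stranded custom Agilent array had been incubated for 1 h at 25 °C with 200 nM protein and 50 µM zinc acetate. The protein was a Ni–NTA-purified transcription factor fused N-terminally to polyhistidine and DsRed, expressed in E. coli BL21-CodonPlus.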

Sequence | binding signal
ACTCATCCGCCGCTGAGCTCTATCTATCTACTAGTTAGTTCGGAGTCACCTAGTGCAG | 8840 fluorescence intensity (a.u.)
TTTTTTGGCGATCTCTTCTGTGTTCCTTTGTTAGTCTAGCCGGAGTCACCTAGTGCAG | 12000 fluorescence intensity (a.u.)
GTACTTTAAGCACAACTTTTTATTTTTTATATTTGCAAAACGGAGTCACCTAGTGCAG | 8410 fluorescence intensity (a.u.)
ATTAATTCTGTTTTTTTCAAGTCTCTCTCGCTCTCGCTCCCGGAGTCACCTAGTGCAG | 8820 fluorescence intensity (a.u.)
ACTGCGCTCCGTACTTGCAACTGCACGCATCATTCAGAAACGGAGTCACCTAGTGCAG | 8080 fluorescence intensity (a.u.)
TGAGTATGATGAGATTAATTTCTTGCCTGTTTCTGCTGGACGGAGTCACCTAGTGCAG | 8120 fluorescence intensity (a.u.)
CGTCGTCTTCCTCACCGTTCGCGCATCAACAACCTTGTCGCGGAGTCACCTAGTGCAG | 9650 fluorescence intensity (a.u.)
ATTAGATTCTACTATTCATGCAGGGGTAAGATGGGCATTTCGGAGTCACCTAGTGCAG | 8910 fluorescence intensity (a.u.)
CGTGCCACTCGATTTGTTGATTTGTTGCCGATTTGCTGCCCGGAGTCACCTAGTGCAG | 10800 fluorescence intensity (a.u.)
TCTTTGCAGGTCACTTCCGGGTGCTTCACATTCCGGTTAACGGAGTCACCTAGTGCAG | 8890 fluorescence intensity (a.u.)
CCCTATATAAGTCATTTTGTTTCAAATGTCCATCCACATACGGAGTCACCTAGTGCAG | 9750 fluorescence intensity (a.u.)
GCCCCTTATTTGTTCATGCGTTGCTCCACATCCTCCATAACGGAGTCACCTAGTGCAG | 11200 fluorescence intensity (a.u.)
TTTTTTTTGAGAGTAGCTATATTTATGGCGCCATATTTTTCGGAGTCACCTAGTGCAG | 8420 fluorescence intensity (a.u.)
ATTCACCGTACCCCGCTAGCCCTTGTTACTTCCAGTCTCTCGGAGTCACCTAGTGCAG | 14500 fluorescence intensity (a.u.)
CTGCCACGCCGCCGTAACCACCACTCAACTGCCACATACCCGGAGTCACCTAGTGCAG | 9130 fluorescence intensity (a.u.)
GGCAATCTAGTCTTTTTCGATTGTTTCTCTCTCCATTTTCCGGAGTCACCTAGTGCAG | 9660 fluorescence intensity (a.u.)
TGCTGCCCATCCCCTCCATTGCTAGCATCGGCAGCTTCCACGGAGTCACCTAGTGCAG | 8870 fluorescence intensity (a.u.)
GGCTGGGGTGGGCTCTACTTGACAGACTGATACTCCTACTCGGAGTCACCTAGTGCAG | 19600 fluorescence intensity (a.u.)
GATCTGTCTACACATGCATGACCCTCGCGAGACTCATCTCCGGAGTCACCTAGTGCAG | 11600 fluorescence intensity (a.u.)
CGTCCTCGCGGGCGCGCTGCCGATTTCCCCTGCGCGCACACGGAGTCACCTAGTGCAG | 8290 fluorescence intensity (a.u.)
TTTTTTTCTCTCGAGGGGATGTCTCTTCCTTTCATGTCTTCGGAGTCACCTAGTGCAG | 8180 fluorescence intensity (a.u.)

Sequence | binding signal
TCTCTGTGTACCGTTTCTCTCGCCGATTGTGTACCGATTCCGGAGTCACCTAGTGCAG | 9360 fluorescence intensity (a.u.)
TTTTTTTCGTCGGTATATATCCATGTGTGATCTTGTTTTGCGGAGTCACCTAGTGCAG | 11200 fluorescence intensity (a.u.)
AATTCCTGCGTTTTTCATGTGGTCCAATCAAACGGTCATTCGGAGTCACCTAGTGCAG | 8780 fluorescence intensity (a.u.)
GGATTATTTTGGCGATAATATGAACAGCCCTTACATTTCTCGGAGTCACCTAGTGCAG | 8980 fluorescence intensity (a.u.)
GCCGCCTGGCCGCCAACACGTCCAGTACGCCGTTCGTTACCGGAGTCACCTAGTGCAG | 8780 fluorescence intensity (a.u.)
GACCAACCCATTGCATGTTCCTTTTTCGTAACAATTTTAACGGAGTCACCTAGTGCAG | 11200 fluorescence intensity (a.u.)
AATAATCGAATCCAATCCATCTTCCACGCGCATTCCGGATCGGAGTCACCTAGTGCAG | 9290 fluorescence intensity (a.u.)
ATTTTTGTGTCAAGGTTGCCATTCTCTTTCCTGAATTTGTCGGAGTCACCTAGTGCAG | 8390 fluorescence intensity (a.u.)
TTTATTCGTCCTGTTCCTTTCGTTCCATTCCTAAATCCTACGGAGTCACCTAGTGCAG | 8600 fluorescence intensity (a.u.)
TGCGGTTCCGTGTCGTCCAAATTAATGTGTCACTGTTAATCGGAGTCACCTAGTGCAG | 8880 fluorescence intensity (a.u.)
CTTGGCCGATAACCCGTCTCACCGCCAAATCGCCAATCTCCGGAGTCACCTAGTGCAG | 8340 fluorescence intensity (a.u.)
ACCACTTGGCTTTCTTTCTTTTATCCGGTTAGTTCCGGCGCGGAGTCACCTAGTGCAG | 8090 fluorescence intensity (a.u.)
TAAAATCTGCACTAGTGTTTTTCCAAGCTTTTTTTTTTTTCGGAGTCACCTAGTGCAG | 10800 fluorescence intensity (a.u.)
GTGTTGGTTATGTACCTCATACTGTGCATGATTTGTCCCTCGGAGTCACCTAGTGCAG | 8710 fluorescence intensity (a.u.)
CTCGGTGATGCATCGGATATGTTCCATGTTATATTTAAGTCGGAGTCACCTAGTGCAG | 8110 fluorescence intensity (a.u.)
GTAGACCCACATGTCATTGAGATAGGGGTGGCAAATAGTTCGGAGTCACCTAGTGCAG | 8170 fluorescence intensity (a.u.)
ATCCAAAGCCTATGTCCATTCAGCCCATTACGGTCTGGCCCGGAGTCACCTAGTGCAG | 10300 fluorescence intensity (a.u.)
CCCAGTATTTTTCACTTACCTTTCACCCTTTTAACTTTTGCGGAGTCACCTAGTGCAG | 8350 fluorescence intensity (a.u.)
GTACAATTGCTTGTGATAATAATTAATTTGACCTATTAAACGGAGTCACCTAGTGCAG | 8210 fluorescence intensity (a.u.)
TCATGTGGCCTGTTGGGTTAGTATTGTCAACCGGATCTGACGGAGTCACCTAGTGCAG | 13200 fluorescence intensity (a.u.)
GTTCTATCCTTTCCATCTCCTTTGCAGCAGTCAAGAATATCGGAGTCACCTAGTGCAG | 11400 fluorescence intensity (a.u.)

Individual results from the results shown.
Under binding signal, ATTCACCGTACCCCGCTAGCCCTTGTTACTTCCAGTCTCTCGGAGTCACCTAGTGCAG is listed with 14500 fluorescence intensity (a.u.)
Under binding signal, CTCGGTGATGCATCGGATATGTTCCATGTTATATTTAAGTCGGAGTCACCTAGTGCAG is listed with 8110 fluorescence intensity (a.u.)
Under binding signal, ACTCATCCGCCGCTGAGCTCTATCTATCTACTAGTTAGTTCGGAGTCACCTAGTGCAG is listed with 8840 fluorescence intensity (a.u.)
